Measured values published in publication PMC8986754.
These are yes or no findings as the source states them, for the method shown. In cells and extracts the contact can be indirect. Some entries that bind do so weakly or less than the wild type.

Chains of the proteins cited; added tags and fusions are not shown. Residues count along the entry.
UniProt O76061, residues 25-302: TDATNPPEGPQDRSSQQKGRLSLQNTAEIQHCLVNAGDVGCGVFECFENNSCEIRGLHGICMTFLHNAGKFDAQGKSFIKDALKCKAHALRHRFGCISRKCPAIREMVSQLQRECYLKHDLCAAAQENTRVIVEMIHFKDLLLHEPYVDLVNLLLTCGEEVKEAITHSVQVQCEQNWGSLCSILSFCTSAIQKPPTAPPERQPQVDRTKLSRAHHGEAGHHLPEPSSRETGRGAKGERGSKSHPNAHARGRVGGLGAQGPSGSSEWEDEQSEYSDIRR
UniProt P05107, residues 23-769: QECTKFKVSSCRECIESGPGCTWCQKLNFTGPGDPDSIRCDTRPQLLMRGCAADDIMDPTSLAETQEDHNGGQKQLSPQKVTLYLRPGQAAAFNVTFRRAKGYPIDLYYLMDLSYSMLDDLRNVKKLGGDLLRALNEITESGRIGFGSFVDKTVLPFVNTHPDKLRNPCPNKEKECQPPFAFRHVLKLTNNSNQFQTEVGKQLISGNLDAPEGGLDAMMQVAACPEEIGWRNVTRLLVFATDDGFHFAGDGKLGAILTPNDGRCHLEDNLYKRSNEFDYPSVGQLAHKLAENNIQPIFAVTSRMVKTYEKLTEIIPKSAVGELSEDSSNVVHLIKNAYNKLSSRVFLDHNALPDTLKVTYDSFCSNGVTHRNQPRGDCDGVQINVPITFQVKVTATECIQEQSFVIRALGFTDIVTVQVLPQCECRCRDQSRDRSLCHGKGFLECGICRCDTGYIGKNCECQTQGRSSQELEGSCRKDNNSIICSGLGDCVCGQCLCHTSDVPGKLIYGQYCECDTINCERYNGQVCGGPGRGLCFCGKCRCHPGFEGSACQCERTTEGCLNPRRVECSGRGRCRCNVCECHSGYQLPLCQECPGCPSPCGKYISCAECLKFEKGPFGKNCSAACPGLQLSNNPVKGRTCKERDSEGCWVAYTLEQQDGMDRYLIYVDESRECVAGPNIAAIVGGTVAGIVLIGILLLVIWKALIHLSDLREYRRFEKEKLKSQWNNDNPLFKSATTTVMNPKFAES

Target: Stanniocalcin-2 (human (endogenous in human nasopharyngeal carcinoma cell lines 6-10B / CNE1)) (UniProt O76061)
Assay: co-IP; Pierce Crosslink Immunoprecipitation Kit; cells lysed in RIPA lysis buffer (25 mM Tris-HCl, pH 7.4, 0.15 M NaCl, 0.001 M EDTA, 1% NP-40, 5% glycerol) with protease inhibitors; lysate pre-cleared, immunoprecipitated with anti-STC2 antibody overnight at 4 °C; western blot

binding: binds
Substance: integrin β2 (from UniProt P05107 23-769)
